Test results: the supplement of paper PMC12823440, “Inhibitors supercharge kinase turnover through native proteolytic circuits” (Nature, 2025)
Counter-ions that a name gives are not always drawn. The list shows a part of the results. The calls rarely recur for the same compound in another form.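 In K562 cells expressing nanoluciferase-fused kinases, luminescence was recorded at 4 h intervals between 2 and 18 h, normalized as percent of control with DMSO at 100% and a positive control at 0%. A significant (2 sigma) signal drop marks a time point as decreased. The authors' rule for a hit is not shown and takes in more than the number of time points.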

Chains of the proteins cited; added tags and fusions are not shown. Lines headed by an entry give the natural chain unless they say otherwise; changes in a name come on top.
UniProt Q8IWU2: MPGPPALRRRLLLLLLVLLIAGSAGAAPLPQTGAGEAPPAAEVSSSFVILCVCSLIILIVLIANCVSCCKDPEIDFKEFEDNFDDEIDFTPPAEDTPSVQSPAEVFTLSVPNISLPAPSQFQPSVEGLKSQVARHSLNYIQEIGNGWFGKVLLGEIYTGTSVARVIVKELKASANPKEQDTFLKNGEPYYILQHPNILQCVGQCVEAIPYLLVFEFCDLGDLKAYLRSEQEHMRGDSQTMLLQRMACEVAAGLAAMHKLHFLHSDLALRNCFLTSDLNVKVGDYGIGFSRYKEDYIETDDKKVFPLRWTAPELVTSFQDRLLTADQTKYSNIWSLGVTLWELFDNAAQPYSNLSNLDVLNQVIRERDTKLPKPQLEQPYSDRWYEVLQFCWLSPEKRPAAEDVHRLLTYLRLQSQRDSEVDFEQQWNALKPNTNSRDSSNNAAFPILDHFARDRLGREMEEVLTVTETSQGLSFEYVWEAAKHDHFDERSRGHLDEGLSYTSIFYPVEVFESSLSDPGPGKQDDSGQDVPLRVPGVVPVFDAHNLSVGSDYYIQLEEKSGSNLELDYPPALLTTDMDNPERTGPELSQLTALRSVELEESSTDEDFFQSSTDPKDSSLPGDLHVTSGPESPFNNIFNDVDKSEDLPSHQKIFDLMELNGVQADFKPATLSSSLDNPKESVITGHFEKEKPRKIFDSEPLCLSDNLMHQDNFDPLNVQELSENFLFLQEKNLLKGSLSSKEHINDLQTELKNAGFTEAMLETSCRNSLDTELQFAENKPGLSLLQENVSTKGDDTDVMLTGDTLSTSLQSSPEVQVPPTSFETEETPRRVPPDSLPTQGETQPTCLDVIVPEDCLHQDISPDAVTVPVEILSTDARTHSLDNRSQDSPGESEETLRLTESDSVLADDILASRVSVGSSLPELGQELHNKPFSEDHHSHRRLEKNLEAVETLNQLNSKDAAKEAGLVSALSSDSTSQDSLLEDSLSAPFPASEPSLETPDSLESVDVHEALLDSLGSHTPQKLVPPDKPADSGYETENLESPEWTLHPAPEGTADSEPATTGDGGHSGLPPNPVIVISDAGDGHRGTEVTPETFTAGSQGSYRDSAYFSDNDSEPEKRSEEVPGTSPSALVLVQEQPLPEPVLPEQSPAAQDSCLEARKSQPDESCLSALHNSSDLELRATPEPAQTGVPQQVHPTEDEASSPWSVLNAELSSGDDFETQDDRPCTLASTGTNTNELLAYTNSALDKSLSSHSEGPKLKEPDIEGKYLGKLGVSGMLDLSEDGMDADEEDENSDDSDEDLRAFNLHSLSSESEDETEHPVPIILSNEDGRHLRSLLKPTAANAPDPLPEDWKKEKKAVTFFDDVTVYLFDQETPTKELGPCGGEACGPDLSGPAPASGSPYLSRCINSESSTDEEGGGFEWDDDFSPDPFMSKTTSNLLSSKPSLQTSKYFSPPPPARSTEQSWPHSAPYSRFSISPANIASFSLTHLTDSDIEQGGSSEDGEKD
UniProt P07948: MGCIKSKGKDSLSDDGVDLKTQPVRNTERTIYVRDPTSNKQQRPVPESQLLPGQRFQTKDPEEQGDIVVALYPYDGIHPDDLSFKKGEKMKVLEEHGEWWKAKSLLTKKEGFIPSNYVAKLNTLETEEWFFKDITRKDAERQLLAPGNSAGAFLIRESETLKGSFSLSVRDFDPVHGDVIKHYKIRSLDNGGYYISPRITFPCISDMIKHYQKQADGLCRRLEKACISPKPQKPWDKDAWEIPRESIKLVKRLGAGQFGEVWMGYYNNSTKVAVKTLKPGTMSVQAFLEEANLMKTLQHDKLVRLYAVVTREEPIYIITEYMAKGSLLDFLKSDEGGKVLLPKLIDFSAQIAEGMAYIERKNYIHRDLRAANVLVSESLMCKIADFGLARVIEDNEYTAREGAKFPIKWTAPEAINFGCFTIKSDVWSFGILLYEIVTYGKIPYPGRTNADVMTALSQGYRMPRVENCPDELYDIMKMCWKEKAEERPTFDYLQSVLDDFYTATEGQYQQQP
UniProt Q12851: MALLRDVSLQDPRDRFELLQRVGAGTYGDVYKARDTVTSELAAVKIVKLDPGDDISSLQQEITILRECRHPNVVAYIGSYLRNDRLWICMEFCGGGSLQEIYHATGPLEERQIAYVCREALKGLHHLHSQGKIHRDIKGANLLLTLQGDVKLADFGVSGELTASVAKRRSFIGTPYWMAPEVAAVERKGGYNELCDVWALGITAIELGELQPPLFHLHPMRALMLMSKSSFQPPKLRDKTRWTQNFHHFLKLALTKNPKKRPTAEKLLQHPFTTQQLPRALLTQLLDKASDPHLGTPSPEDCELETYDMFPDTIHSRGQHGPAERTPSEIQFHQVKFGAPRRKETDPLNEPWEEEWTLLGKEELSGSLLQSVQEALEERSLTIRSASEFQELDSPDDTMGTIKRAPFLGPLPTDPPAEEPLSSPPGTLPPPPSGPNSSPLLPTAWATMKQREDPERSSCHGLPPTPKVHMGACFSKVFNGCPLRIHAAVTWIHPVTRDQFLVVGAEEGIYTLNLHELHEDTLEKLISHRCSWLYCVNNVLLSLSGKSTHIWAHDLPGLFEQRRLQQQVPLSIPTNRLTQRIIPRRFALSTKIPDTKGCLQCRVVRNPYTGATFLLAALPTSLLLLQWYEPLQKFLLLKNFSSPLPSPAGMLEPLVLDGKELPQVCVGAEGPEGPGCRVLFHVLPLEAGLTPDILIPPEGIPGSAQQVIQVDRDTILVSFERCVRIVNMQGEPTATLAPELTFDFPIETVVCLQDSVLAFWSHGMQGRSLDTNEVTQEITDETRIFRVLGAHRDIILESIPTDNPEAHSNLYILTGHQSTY
UniProt P28482, whole entry: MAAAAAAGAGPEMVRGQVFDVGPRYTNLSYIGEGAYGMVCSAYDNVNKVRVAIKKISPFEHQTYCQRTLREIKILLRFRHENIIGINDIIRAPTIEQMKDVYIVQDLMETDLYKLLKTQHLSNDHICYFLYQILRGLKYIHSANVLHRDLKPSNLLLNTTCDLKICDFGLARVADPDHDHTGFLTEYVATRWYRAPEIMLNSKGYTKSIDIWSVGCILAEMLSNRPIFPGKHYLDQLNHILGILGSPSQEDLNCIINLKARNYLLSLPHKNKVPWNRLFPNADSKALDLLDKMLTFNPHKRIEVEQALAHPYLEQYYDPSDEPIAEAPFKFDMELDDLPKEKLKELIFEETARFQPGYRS
UniProt P31152, whole entry: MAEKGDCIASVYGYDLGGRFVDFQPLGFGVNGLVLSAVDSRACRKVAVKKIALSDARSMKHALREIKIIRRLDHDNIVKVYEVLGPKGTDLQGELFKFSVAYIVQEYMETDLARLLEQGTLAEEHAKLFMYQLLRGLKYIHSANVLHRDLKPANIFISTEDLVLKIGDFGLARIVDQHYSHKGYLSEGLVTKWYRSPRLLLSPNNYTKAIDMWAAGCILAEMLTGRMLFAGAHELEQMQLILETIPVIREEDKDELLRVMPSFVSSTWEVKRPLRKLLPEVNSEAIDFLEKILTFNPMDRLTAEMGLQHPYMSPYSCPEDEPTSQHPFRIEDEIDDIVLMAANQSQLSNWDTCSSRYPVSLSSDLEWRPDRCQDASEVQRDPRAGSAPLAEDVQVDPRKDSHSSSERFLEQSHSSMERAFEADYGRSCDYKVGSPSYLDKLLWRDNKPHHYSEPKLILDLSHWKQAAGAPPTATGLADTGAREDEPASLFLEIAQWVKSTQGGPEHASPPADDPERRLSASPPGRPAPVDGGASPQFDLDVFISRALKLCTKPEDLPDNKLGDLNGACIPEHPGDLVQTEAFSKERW
UniProt P49137, whole entry, looked up: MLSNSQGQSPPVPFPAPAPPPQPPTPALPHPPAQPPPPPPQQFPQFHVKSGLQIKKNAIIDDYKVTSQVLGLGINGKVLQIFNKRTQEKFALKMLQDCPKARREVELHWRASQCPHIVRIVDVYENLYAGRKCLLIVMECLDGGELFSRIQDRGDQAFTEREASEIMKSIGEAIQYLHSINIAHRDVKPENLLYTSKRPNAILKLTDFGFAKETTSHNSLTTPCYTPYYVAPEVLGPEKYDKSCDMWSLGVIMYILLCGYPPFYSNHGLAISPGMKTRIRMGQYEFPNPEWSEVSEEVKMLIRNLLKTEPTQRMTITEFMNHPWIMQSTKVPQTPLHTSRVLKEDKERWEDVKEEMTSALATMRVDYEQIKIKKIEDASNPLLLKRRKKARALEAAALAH
UniProt Q9BUB5: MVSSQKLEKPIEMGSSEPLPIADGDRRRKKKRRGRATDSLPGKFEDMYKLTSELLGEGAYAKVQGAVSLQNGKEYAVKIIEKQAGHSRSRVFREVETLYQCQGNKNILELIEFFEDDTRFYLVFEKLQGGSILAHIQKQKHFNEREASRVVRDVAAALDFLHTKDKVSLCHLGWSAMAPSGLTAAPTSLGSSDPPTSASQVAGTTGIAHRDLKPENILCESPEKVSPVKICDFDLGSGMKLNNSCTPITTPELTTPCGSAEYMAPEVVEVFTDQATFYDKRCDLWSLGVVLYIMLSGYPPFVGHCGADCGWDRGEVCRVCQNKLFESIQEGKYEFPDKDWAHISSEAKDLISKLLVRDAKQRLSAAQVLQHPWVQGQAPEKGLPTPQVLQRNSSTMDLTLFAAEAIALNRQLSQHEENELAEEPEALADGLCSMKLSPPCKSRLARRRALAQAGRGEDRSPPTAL
UniProt Q16620, whole entry, looked up: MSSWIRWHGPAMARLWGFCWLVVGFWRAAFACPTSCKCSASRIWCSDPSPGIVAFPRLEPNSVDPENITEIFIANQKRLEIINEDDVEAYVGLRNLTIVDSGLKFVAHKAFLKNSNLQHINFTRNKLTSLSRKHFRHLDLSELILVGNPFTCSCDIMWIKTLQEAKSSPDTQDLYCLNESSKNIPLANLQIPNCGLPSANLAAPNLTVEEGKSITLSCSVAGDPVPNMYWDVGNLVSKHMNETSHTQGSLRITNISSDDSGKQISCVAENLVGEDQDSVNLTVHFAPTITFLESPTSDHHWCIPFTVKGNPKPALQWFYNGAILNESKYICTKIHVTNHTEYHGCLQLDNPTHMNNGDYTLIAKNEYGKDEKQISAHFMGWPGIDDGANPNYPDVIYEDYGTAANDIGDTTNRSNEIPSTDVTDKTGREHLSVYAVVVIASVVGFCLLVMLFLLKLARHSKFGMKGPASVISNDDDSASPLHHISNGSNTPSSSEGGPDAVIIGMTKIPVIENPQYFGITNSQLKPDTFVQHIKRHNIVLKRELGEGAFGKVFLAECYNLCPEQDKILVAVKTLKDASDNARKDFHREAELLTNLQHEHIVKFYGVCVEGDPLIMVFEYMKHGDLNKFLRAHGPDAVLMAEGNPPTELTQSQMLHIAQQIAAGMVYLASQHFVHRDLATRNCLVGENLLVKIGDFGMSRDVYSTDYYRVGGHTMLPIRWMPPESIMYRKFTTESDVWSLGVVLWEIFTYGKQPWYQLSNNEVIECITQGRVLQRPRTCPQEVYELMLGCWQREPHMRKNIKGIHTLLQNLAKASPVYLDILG

Assays:
Experiment in all cases: number of time points (of 5) at which kinase-Nluc abundance scored as decreased, DMSO-normalised (count); higher = more persistent destabilization
Settings in all cases: K562; 2-18 h
[1] = biological target: LMTK2 (UniProt Q8IWU2)
[2] = biological target: LYN (UniProt P07948)
[3] = biological target: MAP2K1 (UniProt Q02750)
[4] = biological target: MAP2K2 (UniProt P36507)
[5] = biological target: MAP4K2 (UniProt Q12851)
[6] = biological target: MAPK1 (UniProt P28482)
[7] = biological target: MAPK4 (UniProt P31152)
[8] = biological target: MAPKAPK2 (UniProt P49137)
[9] = biological target: MKNK1 (UniProt Q9BUB5)
[10] = biological target: NTRK2 (UniProt Q16620)

Measured: number of time points

Cn1c(=O)c(Oc2ccc(F)cc2F)cc2cnc(NC3CCOCC3)nc21 [R1487 (Hydrochloride)] (10 µM)
0: all assays above

O=C(NOC[C@H](O)CO)c1ccc(F)c(F)c1Nc1ccc(I)cc1F (2.5 µM)
not listed: [3]
0: all other assays above

CNC(=O)c1cccc(-c2ccc3c(N4CCOC[C@@H]4C)nc(N4CCOC[C@@H]4C)nc3n2)c1 [Vistusertib] (2.5 µM)
3: [9] | [10]
1: [2]
0: all other assays above

Cc1c[nH]c2ccccc12 [Skatole] (10 µM)
0: all assays above

Cc1c[nH]c2nccc(Oc3c(F)cc(Nc4cc(Cl)nc(N)n4)cc3F)c12 (10 µM)
1: [9]
0: all other assays above

Cc1ccc(S(=O)(=O)Nc2nc3ccccc3nc2Nc2ccc3nsnc3c2)cc1 [Pilaralisib analogue] (10 µM)
1: [10]
not listed: [9]
0: all other assays above

CCOc1cc2ncc(C#N)c(Nc3ccc(OCc4ccccn4)c(Cl)c3)c2cc1NC(=O)/C=C/CN(C)C [Neratinib] (10 µM)
0: all assays above

CC(=O)N1CCN(c2ccc(OCC3COC(Cn4ccnc4)(c4ccc(Cl)cc4Cl)O3)cc2)CC1 (stereo not given) [Ketoconazole] (2.5 µM)
0: all assays above

CCN1CCN(c2ccc(Nc3cc(N(C)C(=O)Nc4c(Cl)c(OC)cc(OC)c4Cl)ncn3)cc2)CC1 [Infigratinib] (10 µM)
0: all assays above

CCn1c(=O)c2cc(C(N)=O)c(N)nc2n(C2CC2)c1=O (10 µM)
0: all assays above

COc1c(CC=C(C)C)c(O)cc2oc(=O)c(-c3ccc(O)cc3O)cc12 [Glycycoumarin] (10 µM)
0: all assays above

COc1cc(F)cc([C@@H](CO)NC(=O)[C@@H](C)N2Cc3ccc(-c4nc(NC5CCOCC5)ncc4Cl)cc3C2=O)c1 [ERK1/2 inhibitor 2] (10 µM)
2: [10]
not listed: [6]
0: all other assays above

O=C(O)CCNC(=O)c1ccc(/N=N/c2ccc(O)c(C(=O)O)c2)cc1 [Balsalazide] (10 µM)
0: all assays above

COC(=O)c1ccc2c(C(=Nc3ccc(N(C)C(=O)CN4CCN(C)CC4)cc3)c3ccccc3)c(O)[nH]c2c1 [Nintedanib] (2.5 µM)
0: all assays above

Cc1cccc(Cn2nc(C3CC3)c3c(NC(=O)c4cnc5cc(OCCN6CCN(C)CC6)ccn45)cccc32)n1 (10 µM)
0: all assays above

Cc1cccc([C@@H](CO)NC(=O)[C@@H](C)N2Cc3ccc(-c4nc(NC5CCOCC5)ncc4Cl)cc3C2=O)c1 [ERK1/2 inhibitor 1] (10 µM)
not listed: [6]
0: all other assays above

Cc1cc(CS(=O)(=O)c2ccccc2)cc(OCc2ccc(CN3CCC[C@@H]3CO)cc2)c1 [PF-543 (Citrate)] (10 µM)
0: all assays above

O=S(=O)(NCCNC/C=C/c1ccc(Br)cc1)c1cccc2cnccc12 [H-89 (dihydrochloride)] (10 µM)
0: all assays above

COc1ccc2c(C(=O)Nc3ccc(NC(=O)c4nn(C5CCN(C(=O)CC(C)(C)C#N)CC5)c5ccc(F)cc45)cc3Cl)cnn2c1 [Src Inhibitor 3] (2.5 µM)
5: [2]
1: [1] | [7] | [8] | [9]
0: all other assays above

O=C(Nc1ccc(-c2ccnc(Nc3ccc(N4CCOCC4)cc3)n2)cc1)C1CCCN1 (stereo not given) (10 µM)
0: all assays above

CC[C@H](CO)Nc1nc(NCc2ccccc2)c2ncn(C(C)C)c2n1 [Seliciclib] (10 µM)
0: all assays above

FC(F)(F)c1ccc(CNc2ccc(Cc3c[nH]c4ncc(Cl)cc34)cn2)cc1 (10 µM)
0: all assays above

C=CC(=O)N1CCN(CCCn2c(=O)c(-c3c(Cl)c(OC)cc(OC)c3Cl)cc3cnc(NC)nc32)CC1 (10 µM)
0: all assays above

O=c1oc2ccccc2c(O)c1Cc1c(O)c2ccccc2oc1=O [Dicoumarol] (10 µM)
not listed: [6]
0: all other assays above

N#C/C(=C\c1ccc(O)c(O)c1)C(=O)NCCCc1ccccc1 (10 µM)
0: all assays above

COc1ccc(NC(=O)N2CCN(c3nc(N)nc4c3cnn4C)[C@@H](C)C2)c(C)c1 (10 µM)
0: all assays above

C/C=C(/C)C(=O)O[C@H]1Cc2cc3ccc(=O)oc3cc2OC1(C)C [Decursinol angelate] (10 µM)
0: all assays above

Cc1cc(F)c(C(=O)Nc2cccc(-c3nncn3C(C)C)n2)cc1-n1cnc(C2CC2)c1 [Selonsertib] (10 µM)
0: all assays above

COCc1c(-c2ccc(NC(=O)Nc3cc(C(F)(F)F)ccc3F)c(F)c2)c2c(N)ncnn2c1CN1CCOCC1 (2.5 µM)
0: all assays above

N#CC(=Cc1ccc(O)c(O)c1)C(=O)NCc1ccccc1 (mixture of isomers) (10 µM)
0: all assays above

Cc1c(NC(=O)c2cc3c(s2)CCCC3)cccc1-c1cn(C)c(=O)c(Nc2ccc([C@@H]3C(=O)N(C)CCN3C)cc2)n1 (10 µM)
0: all assays above

CN1CCN(S(=O)(=O)c2ccc(-c3cnc(N)c(C(=O)Nc4cccnc4)n3)cc2)CC1 (10 µM)
0: all assays above

COc1cc(C(=O)NC2CCN(C)CC2)c(F)cc1Nc1ncc2c(n1)N(C1CCCC1)CC(F)(F)C(=O)N2C [TAK-960 (dihydrochloride)] (2.5 µM)
0: all assays above
